## Results from one PubChem assay

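Malaria parasite (P. falciparum) lines kept in red blood cells; parasite DNA is measured by SYBR Green fluorescence after lysis, 72 h after compound addition. Each compound was titrated across a series from about 0.000037 to 29 µM. The number is the fitted AC50, the concentration giving a half-maximal change in signal; a lower value means higher potency, whether the curve shows a decrease or an increase. Calls follow the curve class and fit quality: every row here is inconclusive, covering signal-raising curves and weak, poorly fitted, partial or highest-dose-only inhibition curves.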

Values are in µM. All entries here are filed as inconclusive. Only part of the assay is shown, chiefly results filed as inconclusive. Potencies fitted to partial, single-point or poorly fitting curves are rough. Some entries filed as inconclusive have a full curve.

SMILES | tested on / at | fitted potency (µM) | curve
CCN(CC)CCNC(=O)COc1ccc(Cl)cc1 | PC26 | 19.01 | inhibitor, partial curve, poor fit
CCN(CC)CCNC(=O)COc1ccc(Cl)cc1 | CP237 | 5.012 | inhibitor, partial curve
CCN(CC)CCNC(=O)COc1ccc(Cl)cc1 | CP252 | 11.22 | inhibitor, single point
CCN(CC)CCNC(=O)COc1ccc(Cl)cc1 | CP194 | 19.01 | inhibitor, partial curve, poor fit
CCN(CC)CCNC(=O)COc1ccc(Cl)cc1 | ECU | 11.22 | inhibitor, single point
CCN(CC)CCNC(=O)COc1ccc(Cl)cc1 | CP238 | 8.912 | inhibitor, partial curve
CCN(CC)CCNC(=O)COc1ccc(Cl)cc1 | GB4 | 12 | inhibitor, partial curve
CCN(CC)CCNC(=O)COc1ccc(Cl)cc1 | DIV17 | 7.569 | inhibitor, partial curve
CCN(CC)CCNC(=O)COc1ccc(Cl)cc1 | TAB109 | 12.59 | inhibitor, partial curve
CCN(CC)CCNC(=O)COc1ccc(Cl)cc1 | 7G8 | 12.59 | inhibitor, partial curve
CCN(CC)CCNC(=O)COc1ccc(Cl)cc1 | CP185 | 5.623 | inhibitor, partial curve, poor fit
CCN(CC)CCNC(=O)COc1ccc(Cl)cc1 | CP297 | 19.01 | inhibitor, single point
CCN(CC)CCNC(=O)COc1ccc(Cl)cc1 | DFO2036 | 7.943 | inhibitor, partial curve
CCN(CC)CCNC(=O)COc1ccc(Cl)cc1 | DIV14 | 10.69 | inhibitor, partial curve
CCN(CC)CCNC(=O)COc1ccc(Cl)cc1 | CP265 | 12.59 | inhibitor, partial curve
CCN(CC)CCNC(=O)COc1ccc(Cl)cc1 | CP286 | 12.59 | inhibitor, partial curve
CCN(CC)CCNC(=O)COc1ccc(Cl)cc1 | CP250 | 8.912 | inhibitor, single point
CCN(CC)CCNC(=O)COc1ccc(Cl)cc1 | ATS95 | 15.85 | inhibitor, single point
CCN(CC)CCNC(=O)COc1ccc(Cl)cc1 | CP260 | 12.59 | inhibitor, single point
O=CCCCC=O | DIV17 | 19.01 | inhibitor, single point
O=CCCCC=O | CP335 | 19.01 | inhibitor, partial curve, poor fit
O=CCCCC=O | P93_24 | 17.78 | inhibitor, single point
O=CCCCC=O | HB3 | 17.78 | inhibitor, single point
O=CCCCC=O | CP260 | 12.59 | inhibitor, single point
O=CCCCC=O | ATS189 | 17.78 | inhibitor, single point
O=CCCCC=O | PC26 | 19.01 | inhibitor, partial curve, poor fit
O=CCCCC=O | GB4 | 13.46 | inhibitor, single point
O=CCCCC=O | DIV30 | 0.006 | inhibitor, full curve
O=CCCCC=O | TAB165 | 17.78 | inhibitor, single point
CCN(CC)CCOC(=O)C(C)(c1ccccc1)c1ccccc1 | DFO2036 | 14.13 | inhibitor, partial curve
CCN(CC)CCOC(=O)C(C)(c1ccccc1)c1ccccc1 | CP238 | 11.22 | inhibitor, partial curve
CCN(CC)CCOC(=O)C(C)(c1ccccc1)c1ccccc1 | CP217 | 10 | inhibitor, partial curve
CCN(CC)CCOC(=O)C(C)(c1ccccc1)c1ccccc1 | CP260 | 7.08 | inhibitor, partial curve
CCN(CC)CCOC(=O)C(C)(c1ccccc1)c1ccccc1 | GB4 | 5.358 | inhibitor, partial curve, poor fit
CCN(CC)CCOC(=O)C(C)(c1ccccc1)c1ccccc1 | CP268 | 6.746 | inhibitor, partial curve

Some entries from above, unchanged:

O=CCCCC=O [GB4] read fitted potency 13.46 µM (inhibitor, single point).
O=CCCCC=O [P93_24] read fitted potency 17.78 µM (inhibitor, single point).
CCN(CC)CCOC(=O)C(C)(c1ccccc1)c1ccccc1 [CP238] read fitted potency 11.22 µM (inhibitor, partial curve).

The results are deposited in PubChem (AID504749; NCATS, 2011).